Laboratory results published in patent publication US8633203B2, “Use of pterocarpans as active anti-cellulite ingredients” (Symrise AG, priority 2009, dated 2014).
At least one compound was matched to its structure with a doubt left.

Tested on: Primary human subcutaneous preadipocytes differentiated to adipocytes
Assay: lipolysis assay, free glycerol in supernatant
Assay type: cell-based
Details: own investigations
Protocol: Primary human subcutaneous preadipocytes (Lonza) are seeded in a 96-well microtiter plate at a concentration of 1×10^4 cells/well. Until confluence is reached, cultivation takes place at 37° C. and 5% CO2 in DMEM, enriched with 10% foetal calf serum. To induce the differentiation of preadipocytes to adipocytes there follows the addition DMEM enriched with 10% foetal calf serum, with added 10 μg/ml insulin, 1 μM dexamethasone and 1 mM IBMX (3-isobutyl-1-methylxanthine). A cultivation for 14 to 20 days follows. During this time, the medium can optionally be replaced by DMEM, enriched with 10% foetal calf serum.
Various concentrations of the test substances are applied to the cells in DMEM, with bovine serum albumen added. After about 20 hours of incubation, the quantification takes place of free glycerol in the supernatant of the cells, which is discharged therefrom after hydrolysis of triglycerides in the cells and is a measure of the lipolysis of the cells. The quantification of the free glycerol is carried out based on an enzymatic method with a free glycerol reagent.
The stimulation of the lipolysis in the presence of test substances is calculated according to the following equation: […]
The […] is calculated from the lipolysis stimulation [%] in a series of dilutions of tested samples. This is the concentration at which the lipolysis is 50% stimulated. […]

## COc1ccc(-c2coc3cc(O)ccc3c2=O)cc1 [Formononetin]
  effect on lipolysis (route iii), in words: inhibition of lipolysis
